According to the supplement of paper PMC3334620:
The full ranking holds about 33,000 sequences; the median of “E-score (-0.5 to 0.5)” is about -0.016, and the highest 2% start at about 0.3. Some of the results follow.

molecular target: T1, Yer184c (UniProt P39961); assay: PBM E-score (8-mer binding enrichment) (E-score (-0.5 to 0.5)); higher = stronger / more preferred TF binding; conditions: protein concentration: 100 nM; construct: GST-full length
T1 sequence: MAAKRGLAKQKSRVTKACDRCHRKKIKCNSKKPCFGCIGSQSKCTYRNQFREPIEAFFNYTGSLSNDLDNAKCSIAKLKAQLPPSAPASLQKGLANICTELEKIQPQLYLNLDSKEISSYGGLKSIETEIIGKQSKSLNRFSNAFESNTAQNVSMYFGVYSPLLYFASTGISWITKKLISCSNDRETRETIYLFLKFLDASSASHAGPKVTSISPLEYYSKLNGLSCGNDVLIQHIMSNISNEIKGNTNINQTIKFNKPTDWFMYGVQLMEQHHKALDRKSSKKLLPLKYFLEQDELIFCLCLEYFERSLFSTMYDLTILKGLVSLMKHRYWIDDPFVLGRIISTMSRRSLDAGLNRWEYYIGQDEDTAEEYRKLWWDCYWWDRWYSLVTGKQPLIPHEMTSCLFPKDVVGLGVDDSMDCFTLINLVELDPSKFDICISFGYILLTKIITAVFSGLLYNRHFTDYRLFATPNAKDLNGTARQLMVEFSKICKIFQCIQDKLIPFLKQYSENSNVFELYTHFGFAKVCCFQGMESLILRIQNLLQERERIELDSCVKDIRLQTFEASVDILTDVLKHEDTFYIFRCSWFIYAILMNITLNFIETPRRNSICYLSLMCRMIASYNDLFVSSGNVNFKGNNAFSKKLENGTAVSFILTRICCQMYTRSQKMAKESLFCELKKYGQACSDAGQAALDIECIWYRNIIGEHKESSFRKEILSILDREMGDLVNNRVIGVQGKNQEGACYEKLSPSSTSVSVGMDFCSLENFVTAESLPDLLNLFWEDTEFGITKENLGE
Procedure: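 Universal 'all 10-mer' protein binding microarrays (Agilent AMADID 015681) probed with GST-tagged S. cerevisiae TFs (full-length or DBD) made by in vitro transcription/translation (PURExpress), about 100-200 nM. Bound TF was detected with fluorescent anti-GST. Each ungapped 8-mer (which stands for itself and its reverse complement) is scored by the PBM enrichment score (E-score), a modified Wilcoxon-Mann-Whitney statistic from -0.5 to +0.5, computed with the Universal PBM Analysis Suite. Scale: above 0.35 generally sequence-specific binding.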

Sequence	PBM E-score
ACGGGACC	-0.109
CTCGAGGA	-0.056
ATGGCAAG	-0.0609
AGTATCAG	-0.0309
AAATGTTC	0.057
ATTCCGCA	0.139
CTTTGAGA	0.175
AACCCATG	-0.0873
CCCCCTTC	-0.435
TGCCACAA	0.129
CAACATTC	-0.085
CGTTACGC	0.0345
CTAAAAGC	-0.052
ATAAGTGA	-0.0589
AATCAGGA	-0.0905
AGCTGCCC	0.034
AGCGTAGA	-0.068
GCCAATAC	-0.203
ATCACATG	-0.0204
ACAACGGA	0.314
GACCCGCC	-0.00184
CTGATCCC	-0.314
CTACATAG	0.0225
AGATGGCT	-0.162
AAGCTCAC	-0.0354

Sequence	PBM E-score
CCCCTCGG	-0.0411
ACCACGAC	-0.106
ATTCATTG	0.0281
GCTTGCGA	0.17
AAGATTGG	0.0314
GGCACGAC	-0.141
AAATTCTG	0.116
CAACTTCC	0.162
ACCTAGTG	0.0183
AGAGACTA	0.0621
CACAGCTC	-0.182
GCGCCATA	0.0461
AGTTTGCA	-0.0278
AAATGCAG	-0.203
TCTTGCCA	-0.206
TCAGGGAA	-0.106
CGTCGTAA	-0.193
CACAGATC	-0.0735
AATGGGTC	-0.184
CCGATCCC	0.0949
CTCTTCTC	-0.215
CCCAGGCG	-0.0497
CATTCACA	-0.066
ACTTGCTC	-0.224
ACCATAAT	-0.0165

Sequence	PBM E-score
CATGTTTA	0.107
CACAGTGA	-0.0981
AACGGTTC	0.0175
CATGTGGG	-0.263
AAAGACAA	0.167
ACCTGTTC	-0.0202
AGCACAAT	-0.0863
ACACCATC	-0.238
GTAATAAA	0.151
CCGGCAAA	0.374
GTCAGTTA	-0.0798
ACCGACGT	0.129
ATCTACTG	0.045
GCACGTTA	-0.11
TAGAAATA	0.126
AGTGAACA	-0.0513
TGGTCGAA	-0.379
GATTTGTA	0.103
CGCTTTAG	-0.0333
GTTGTTGA	0.116
AGAATGCC	-0.00979
GGAACTGA	-0.0159
ACGGATAG	0.139
CAGCGTCG	0.00627
ACGGCCGA	0.355

Sequence	PBM E-score
ATGTAAGG	0.0231
CGCTTCTC	-0.0784
GACTAATA	0.172
CCAGAGCC	-0.108
GATCTATA	0.203
CTGGCCAC	-0.254
ACCTGTCC	-0.0715
CAAACCCG	0.0999
AGTTAGCC	0.0516
AGGGATTC	-0.114
CAGCATCG	-0.203
CGCTGGCA	-0.0581
CCATATGC	-0.0909
CCTATTAG	-0.0293
CCCCATAA	-0.173
GAAATGAC	0.136
AAGCCCTG	-0.209
AATTTTGC	0.131
AATATGCG	-0.0471
GCAGGACC	-0.246
GTTTCCGA	0.286
CCACTATA	0.0573
CCCATTCG	-0.064
GCCGGAGC	0.238
CTAAACGA	-0.037

Sequence	PBM E-score
CTTCTCGA	-0.103
AAGTGTGT	-0.0081
GGAAAGGA	0.132
GACCTAAC	0.11
AACGCCGG	0.317
ACGCGATC	-0.0152
ATGCCCAA	-0.0948
GAGACACC	-0.245
AGTCTGAT	-0.0584
CGAGGACA	-0.148
GCCGATGA	0.21
GGCTTCAC	-0.0697
ATCTGGTG	-0.125
CATATAGA	0.165
ATGTTGTA	0.116
AGCTGCTG	-0.0574
CCGTCAGA	-0.183
CCGCCGGC	0.442
CTTTCCCC	0.0391
ACTGAAAC	0.152
ACACAAAA	0.208
ACAGTAGT	-0.0892
CGTCTATA	-0.104
CACGACCC	-0.109
GCGTAGAA	0.0511

Sequence	PBM E-score
ACTGTGTG	-0.101
AACCTAGT	-0.109
ATTTTTAC	0.0537
CCGTCGAC	-0.046
GCTGATAC	-0.0555
CCCCAGGA	-0.372
AATGACCG	0.14
GTGGTAGA	-0.235
AATGCGCG	0.2
ACACGCCT	-0.212
CTCGCGCA	-0.0306
ATCTGCTA	-0.0945
ACGTTGAC	-0.108
AGAAGCTA	0.1
CAAGGCGG	-0.164
ATACCCAA	0.11
AATGGCAC	-0.154
GCAGGTAA	0.0939
GTCCCCAA	-0.157
ACGAAAGC	0.0461
ATGAACCG	0.0237
ACCTTAAG	0.0419
CCCCGAAA	0.128
AATCGTCG	-0.084
TAATCACA	-0.0395

Sequence	PBM E-score
ACCGGTGG	-0.0724
CCACAGAC	-0.0884
GGACTCAC	-0.201
CGACCCCC	-0.357
GAGGTCAC	-0.0933
GCACTTCC	-0.208
ATTCCCAC	-0.171
GCAATCAC	0.0563
AATGAGGC	-0.0821
TAGGCAAA	-0.0609
AAAGGCGG	-0.00978
AATAGGTC	-0.0248
ACCGATTA	0.209
CCTCCGAA	0.0955
GAACAGGC	-0.0621
AAACCACT	-0.00821
GCCCGGAC	0.192
AATAGCGA	0.107
CTGATTGA	-0.0646
ACTCGCTA	-0.049
AATACCTG	-0.189
TATCAAGA	0.0046
AACGCTTG	-0.121
ACCTGATC	-0.227
TGTATAAA	0.0524

Sequence	PBM E-score
AAACCCTC	-0.135
ACAGAACC	-0.0975
TACTATAA	0.153
CAGCAACC	-0.0589
ACCCATAT	0.0462
GTTTACGA	-0.116
AACGATGA	0.0704
CCGCTCCG	0.228
CAGGCGCG	-0.0832
ACTCGGAG	0.184
CGAGAGCG	-0.168
ACATTTAA	0.187
ATGTACGC	-0.248
GCCCGCAC	-0.0678
ACGATATG	0.0984
GCACGGTA	-0.0237
CTGACTCC	-0.253
CTCTTAAC	0.0497
ACGAGAAC	-0.0476
ACTGATCG	-0.103
GCCTGGGA	-0.0696
AAACTACA	0.159
ACGGCAGA	0.122
CATCGAAC	-0.0705
ATCATGTG	-0.0738

Sequence	PBM E-score
AACTTAGT	0.102
GGCTCCCC	-0.217
ATAATGCG	-0.0333
CGGGATAC	0.139
AGTTCCTA	0.0989
CTCCCAGA	-0.191
GCCATGGC	-0.179
ACAGAAGC	0.0633
AGCACCCA	-0.213
ATACGAAC	0.125
GAGGGGGA	-0.326
CGCACGAC	-0.122
ATTGCACA	-0.00033
CGGGGAGC	-0.0385
GAGAAGTA	0.0279
CGTCACAG	-0.168
ACGCACAC	0.0231
AGTGTGAT	0.0863
ATAAGCGA	0.158
CCTGTACC	-0.18
AATGAGAA	0.121
CCGACAAC	0.13
AGTCGAAT	-0.0811
ACCCACCT	-0.363
AACCGTTC	0.168

Sequence	PBM E-score
AGGTGGGC	-0.3
CCTGTCAC	-0.0568
TATAACAA	0.274
ATTTCGTC	-0.0283
GTGAAGTA	0.00432
CCCGAGGG	0.111
GAACAGGA	0.0359
ATGTCTAA	0.061
AGTGATAC	-0.00601
CAAGTTGC	-0.0601
CCTCCACA	-0.209
GTGCCTTA	-0.0564
AGTACCTC	-0.17
GTTTAACA	0.0617
CAAACGCC	0.0277
ACGTTAGA	0.0206
CAGACGAC	-0.334
AAGTCACA	0.0291
CGCCGTTA	0.102
GGTTCCCA	-0.19
GGAATGAC	0.099
ATTGGAGC	0.0215
AAATCAGT	0.191
GTCACGAC	-0.051
ATAACCAC	-0.197

Taken from the results shown for reference:
Sequence	PBM E-score
ATACCCAA	0.11
AATGGCAC	-0.154
GCAGGTAA	0.0939
GTCCCCAA	-0.157
ACGAAAGC	0.0461
ATGAACCG	0.0237
ACCTTAAG	0.0419
CCCCGAAA	0.128
AATCGTCG	-0.084
TAATCACA	-0.0395
ACCGGTGG	-0.0724
CCACAGAC	-0.0884
GGACTCAC	-0.201
CGACCCCC	-0.357
GAGGTCAC	-0.0933
GCACTTCC	-0.208
ATTCCCAC	-0.171
GCAATCAC	0.0563
AATGAGGC	-0.0821
TAGGCAAA	-0.0609
AAAGGCGG	-0.00978
AATAGGTC	-0.0248
ACCGATTA	0.209
CCTCCGAA	0.0955
GAACAGGC	-0.0621
AAACCACT	-0.00821
GCCCGGAC	0.192
AATAGCGA	0.107
CTGATTGA	-0.0646
ACTCGCTA	-0.049
AATACCTG	-0.189
TATCAAGA	0.0046
AACGCTTG	-0.121
ACCTGATC	-0.227
TGTATAAA	0.0524
AAACCCTC	-0.135
ACAGAACC	-0.0975
TACTATAA	0.153
CAGCAACC	-0.0589
ACCCATAT	0.0462
GTTTACGA	-0.116
AACGATGA	0.0704
CCGCTCCG	0.228
CAGGCGCG	-0.0832
ACTCGGAG	0.184
CGAGAGCG	-0.168
ACATTTAA	0.187
ATGTACGC	-0.248
GCCCGCAC	-0.0678
ACGATATG	0.0984
GCACGGTA	-0.0237
CTGACTCC	-0.253
CTCTTAAC	0.0497
ACGAGAAC	-0.0476
ACTGATCG	-0.103
GCCTGGGA	-0.0696
AAACTACA	0.159
ACGGCAGA	0.122
CATCGAAC	-0.0705
ATCATGTG	-0.0738
AACTTAGT	0.102
GGCTCCCC	-0.217
ATAATGCG	-0.0333
CGGGATAC	0.139
AGTTCCTA	0.0989
CTCCCAGA	-0.191
GCCATGGC	-0.179
ACAGAAGC	0.0633
AGCACCCA	-0.213
ATACGAAC	0.125
GAGGGGGA	-0.326
CGCACGAC	-0.122
ATTGCACA	-0.00033
CGGGGAGC	-0.0385
GAGAAGTA	0.0279
CGTCACAG	-0.168
ACGCACAC	0.0231
AGTGTGAT	0.0863

(cont.)

Sequence	PBM E-score
CCCAACAG	-0.181
ACTCTTAG	-0.155
GATCTCCA	-0.113
ATCCGCCA	0.0237
GATATCGA	-0.0301
GAACCAAC	-0.0522
ACGTTCAT	-0.236
AAGAATCT	0.00106
GACACCCA	-0.151
GGGCCAGA	-0.108
GGCTTCCC	-0.121
AGGTCGAT	0.108
GATACGAC	-0.0684
AAGCCTCA	-0.184
TCTCCTAA	-0.122
GGTTCCAA	0.195
ACAACTAG	-0.0858
AACAGCGC	-0.0852
TACTTCGA	0.236
ACGTAAAC	-0.198
AAACCGTC	0.176
AATGCTAT	0.0422
GGGCTAGA	-0.183
ACTCCTCC	-0.108
TCGAAAAA	0.169

Sequence	PBM E-score
AGGCATGA	-0.224
ACCGACTA	-0.0743
AGCTGCAA	-0.112
CGATTTGA	-0.0198
GACCCCGA	-0.023
GGGTGGAC	-0.13
GAACTCCC	0.173
GGGCCTCA	-0.0388
GGAGCTTA	-0.0665
ACTTTATC	0.206
GGGATAAC	-0.0432
AAGACCCG	-0.0326
AATAGGCT	-0.0742
CAAATGCC	0.0727
CCGAGCGA	0.244
CAGCGCCC	-0.169
CTAATTGC	0.108
GGGTCTCA	-0.338
GTCGGCAA	0.263
CCTGTTGC	-0.214
ATCTTCCC	0.136
CCAAGATC	-0.0163
GTCAATCA	-0.189
AATGAGCC	-0.18
AAATGTCT	-0.105

Sequence	PBM E-score
GCCCGACA	0.0418
ACGATGAC	-0.00353
CGCGTCCG	0.00597
AACCGATG	0.0165
AACGGTGG	-0.174
CATAAGAG	-0.0493
AGAAGCTC	0.0486
AGAGAGGG	-0.257
CATGCAGC	-0.0238
GGAGTGCC	0.0423
AAAGCTGC	-0.0613
ACCGGGCA	0.0539
ATGCCTCG	0.0701
CGTCCGCA	0.00165
ACGTTTCC	-0.0446
GATGATTA	0.051
CGCTCCAA	-0.176
GTTCTAAA	0.169
CGGAGTTA	0.274
TCGAGGAA	-0.099
GCCTACAA	0.101
AACACTTG	-0.0973
CCCCGAGA	-0.123
ACTGCACG	-0.0551
CGCTCGTC	-0.25

Sequence	PBM E-score
CTAAAAGA	-0.0458
AATAACGC	-0.179
ATCCGATC	0.235
ACAACATC	0.117
TATATTGA	0.181
GCTTATCA	-0.102
AGTCTATC	-0.0599
CCCTTAAG	0.0295
GGTGAACC	0.034
CCCCGATA	-0.191
CTCGTGGC	-0.0488
AGTTAGAA	0.136
CCGGTGTA	0.181
CCTAAGTA	0.106
AACGGCCT	-0.0413
CACACTTA	0.121
GAGGAGTA	0.00964
GCAACGTA	-0.075
AGTGGCTG	-0.191
